Measurements reported in PubChem BioAssay AID1224830 (NIAID, 2016)
Shown is an unselected part of about 18,000 reagents. About 2,900 of all reagents (16%) count as active. 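Calls are made per well; low scores hint the gene aids the LPS response, high scores that it dampens it.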 A number with no mark means an inactive call. Repeated entries: four replicate wells of each siRNA pool.

- Assay: 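Host factors that control LPS-induced TNF expression in human macrophages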 (primary screen)
- Cells: human THP-1 monocytic leukaemia cells, TNF dual-luciferase reporter clone, PMA-differentiated to macrophage-like cells
- Knock-down reagent: siRNA pool against human genes, 50 nM
- Timing: LPS for 4 h, given about 3 days after siRNA transfection
- Challenge: bacterial LPS (TLR4 ligand), 10 ng/ml
- Detection: 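TNF firefly reporter luminescence divided by renilla, normalised to the plate median, then turned into a robust z-score for each replicate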
- Reading the numbers: TNF reporter robust z-score: higher = stronger TNF reporter response to LPS
- Call rule: 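a well is active when its z-score exceeds 2.8 or falls below -1.5; control wells carry no call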

gene | TNF reporter robust z-score
CSDE1 | 1.58
CSDE1 | 0.05
CSDE1 | 0.08
CSDE1 | 0.99
ARL5A | 0.06
ARL5A | -0.11
ARL5A | 0.45
ARL5A | 1.02
BAGE5 | -0.5
BAGE5 | 0.85
BAGE5 | 0.4
BAGE5 | 0.45
KRTAP9-3 | 0.18
KRTAP9-3 | 0.37
KRTAP9-3 | 0.63
KRTAP9-3 | 0.48
LASP1 | -0.69
LASP1 | -0.6
LASP1 | -1.28
LASP1 | 0.25
TMEM44 | 0.72
TMEM44 | 0.41
TMEM44 | -0.14
TMEM44 | -0.13
NPAS4 | -1.78 (active)
NPAS4 | -1.95 (active)
NPAS4 | -2.16 (active)
NPAS4 | -2.05 (active)
CABYR | -0.54
CABYR | -0.77
CABYR | -1.16
CABYR | -1.25
DRD5 | -1.06
DRD5 | -1.28
DRD5 | -1.32
DRD5 | -1.44
PPAN | 1.73
PPAN | 1.08
PPAN | 1.12
PPAN | 1.09
PCID2 | 1.74
PCID2 | -0.01
PCID2 | 0
PCID2 | 0.08
OR2W3 | -0.75
OR2W3 | -0.18
OR2W3 | -1.05
OR2W3 | -0.28

No new results follow: an excerpt of the list.
gene | TNF reporter robust z-score
CABYR | -0.54
CABYR | -0.77
CABYR | -1.16
CABYR | -1.25
DRD5 | -1.06
DRD5 | -1.28
DRD5 | -1.32
DRD5 | -1.44
